Test results: paper PMC3630210
These are yes or no findings as the source states them, for the method shown. In cells and extracts the contact can be indirect. Some binding calls cover weakened binding; strength is not graded here.

Chains of the proteins cited; added tags and fusions are not shown. Lines headed by an entry give the natural chain unless they say otherwise; changes in a name come on top.
UniProt Q7MWG4: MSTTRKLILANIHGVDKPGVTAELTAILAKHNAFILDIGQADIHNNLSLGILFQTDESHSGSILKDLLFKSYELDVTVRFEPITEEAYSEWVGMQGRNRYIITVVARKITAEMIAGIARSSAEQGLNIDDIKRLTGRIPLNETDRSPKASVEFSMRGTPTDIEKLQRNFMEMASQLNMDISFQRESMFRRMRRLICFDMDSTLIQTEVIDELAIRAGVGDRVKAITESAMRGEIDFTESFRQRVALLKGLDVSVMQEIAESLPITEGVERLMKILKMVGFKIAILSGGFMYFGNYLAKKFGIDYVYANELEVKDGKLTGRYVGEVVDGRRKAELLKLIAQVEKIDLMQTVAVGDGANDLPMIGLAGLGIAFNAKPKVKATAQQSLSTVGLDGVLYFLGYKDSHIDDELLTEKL
UniProt Q04206: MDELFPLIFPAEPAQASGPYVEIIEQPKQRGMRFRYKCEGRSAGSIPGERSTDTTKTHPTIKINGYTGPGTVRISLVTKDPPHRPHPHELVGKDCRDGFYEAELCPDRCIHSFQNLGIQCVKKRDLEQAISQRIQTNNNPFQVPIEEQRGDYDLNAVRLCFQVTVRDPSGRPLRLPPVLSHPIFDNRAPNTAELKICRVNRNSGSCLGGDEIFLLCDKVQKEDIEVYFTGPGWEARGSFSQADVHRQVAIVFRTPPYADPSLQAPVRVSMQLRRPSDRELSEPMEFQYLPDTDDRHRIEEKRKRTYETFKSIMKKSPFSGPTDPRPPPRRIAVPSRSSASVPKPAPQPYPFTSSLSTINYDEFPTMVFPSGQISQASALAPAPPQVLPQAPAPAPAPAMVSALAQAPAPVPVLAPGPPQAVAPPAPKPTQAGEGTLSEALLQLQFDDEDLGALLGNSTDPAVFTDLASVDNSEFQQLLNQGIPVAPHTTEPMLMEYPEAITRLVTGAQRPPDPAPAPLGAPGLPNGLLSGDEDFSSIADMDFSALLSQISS

Legend:
[1] = target: Myc-SerB (Porphyromonas gingivalis serine phosphatase SerB, full length) (Porphyromonas gingivalis) (UniProt Q7MWG4); assay: co-IP; TIGK cells transiently transfected, stimulated with TNF-α (10 ng/ml, 5 min) or left unstimulated; cells cross-linked with 0.25 mM DSP in PBS for 5 min at room temperature; lysates immunoprecipitated with anti-c-Myc agarose; immunoblot
[2] = target: Myc-SerB (Porphyromonas gingivalis serine phosphatase SerB, full length) (Porphyromonas gingivalis) (UniProt Q7MWG4); assay: co-IP; TIGK cells transiently expressing Myc or Myc-SerB, no cross-linking reagent; lysates immunoprecipitated with anti-Myc antibody; immunoblot

| Substance | binding [1] | binding [2] |
| --- | --- | --- |
| GFP-NF-κB p65 S536D (from UniProt Q04206 1-551) | binds | – |
| endogenous NF-κB p65 (from UniProt Q04206 1-551) | binds | binds |
